± gives the standard deviation. The list shows a part of the results, in another mix than the full data. Many entries were measured with a wide error. Some of the results follow.
Tests used:
[1] = system: MILI (PIWIL2) piRISC loaded with L1MC piRNA (26 nt); experiment: pre-steady-state target cleavage rate (min^-1); higher = faster piRNA-guided slicing of the target; settings: guide: L1MC piRNA 5'p-UAACUAAAUACUAUGCAAGCUGUAGG; auxiliary factor: none (no GTSF1)
Method in brief: (§1)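 With or without 500 nM GTSF1 partner protein, 1 nM active affinity-purified piRISC carrying one synthetic guide was mixed with 0.1 nM transcribed, DNA-blocked target RNA library in HEPES–potassium acetate buffer at 33 °C for 0–8 or 0–960 min. Uncleaved targets were sequenced and normalised to depth and to weakly complementary targets, three trials were pooled, and k3 was capped at 0.0001 min^-1. The pre-steady-state cleavage rate came from a burst-and-steady-state fit.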

[2] = system: MIWI (PIWIL1) piRISC loaded with L1MC piRNA (30 nt); experiment: as above; settings: guide: L1MC piRNA 5'p-UAACUAAAUACUAUGCAAGCUGUAGGUCCU; auxiliary factor: none (no GTSF1)
Method in brief: as §1

[3] = system: EfPiwi piRISC loaded with L1MC piRNA (26 nt); experiment: pre-steady-state target cleavage rate (min^-1); guide: L1MC piRNA 5'p-UAACUAAAUACUAUGCAAGCUGUAGG; MIWI and MILI are mouse PIWI proteins and EfPiwi is from a freshwater sponge; tags in brackets are library labels; higher = faster piRNA-guided slicing of the target
Method in brief: as §1

[4] = auxiliary factor: 500 nM Ephydatia muelleri Gtsf1
[5] = auxiliary factor: none (no Gtsf1)

Sequence	pre-steady-state target cleavage rate [1]	pre-steady-state target cleavage rate [2]	pre-steady-state target cleavage rate [3, 4]	pre-steady-state target cleavage rate [3, 5]
UCCUGCUACAGCAAGCAUAGUAUUUUCAAA	0.000661 ± 0.012	0.000673 ± 0.014	0.00106 ± 0.0074	0.000291 ± 0.021
UCCUGGAUCAGCUUGCAUAGAUUUUUCAAA	0.00076 ± 0.0055	0.000709 ± 0.0062	0.000455 ± 0.0059	0.000181 ± 0.036
UCCUGGAUGUCCUUGCAUAAGUAUUUAGUUA	0.00113 ± 0.0043	0.00107 ± 0.0063	0.00186 ± 0.0045	< 0.0001
UCCUGGAUGUCGUUGCAUAGUAUAAUGUUA	0.00174 ± 0.0045	0.000738 ± 0.012	0.000309 ± 0.01	< 0.0001
UCCUGGUACAGCUUGGAUAGUAUUUAGAAA	0.00113 ± 0.0046	0.00244 ± 0.0036	0.00277 ± 0.0022	0.000319 ± 0.026
UCCUGGAUGUCCUUGCAUAGUAUUAUCAAA [g7:g19:cont:t1A]	0.00135 ± 0.0046	0.00121 ± 0.006	0.000987 ± 0.0079	0.000121 ± 0.021
UCCUGGAUGUCCUUGCAUAGUAUUUUCUUA	0.00172 ± 0.0046	0.00231 ± 0.0049	0.000617 ± 0.01	0.000332 ± 0.019
UCCUGGAUGUCGUAGCAUAGUAUUUACUUA	0.00103 ± 0.0053	0.000684 ± 0.0097	0.000236 ± 0.016	0.000203 ± 0.03
UCCUGGAUGAGCUUGCAUAGCUAUUUAGUUA	0.00154 ± 0.0048	0.00266 ± 0.0034	0.000505 ± 0.0069	0.000171 ± 0.04
UCCUGGUACAGCUUGCAUAGUAAAAAGAAA	0.00109 ± 0.0064	0.000461 ± 0.009	0.00282 ± 0.0033	0.000494 ± 0.018
UCCUCCUACAGCUUCCAUAGUAUAUAGUUA	0.000726 ± 0.0073	0.0013 ± 0.0057	0.00246 ± 0.0022	< 0.0001
UCCUCCUACAGCUUGCAUUGUAUUUUCAAA	0.000923 ± 0.0047	0.00112 ± 0.0048	0.00284 ± 0.0038	0.000154 ± 0.033
UCCUGGAUGUGCUUGCAUAGUAUAUAGAUA	0.000596 ± 0.01	0.00218 ± 0.0037	0.00119 ± 0.0047	0.000238 ± 0.041
UCCUGCUACAGCUUCGUUAGUAUUUAGUAA	0.00158 ± 0.0029	0.00106 ± 0.0048	0.000873 ± 0.0056	0.000265 ± 0.021
UCCUGGAUGUCCUUGCAUAGUAUUAUAGUUA	0.00213 ± 0.0052	0.00302 ± 0.0035	0.00424 ± 0.0041	0.000837 ± 0.0096
UCCUCCUACAGCUUGCAUAGUAAAAAGAAA	0.0011 ± 0.0045	0.000883 ± 0.0075	0.00287 ± 0.0026	0.000261 ± 0.017
UCCUGGAUCACGAUGCAUAGUAUUUUCAAA	0.00031 ± 0.009	0.000283 ± 0.011	0.00163 ± 0.0068	0.000122 ± 0.057
UCCUGGAUGUCGAAGCAUAGUUUUUACUUA	0.000292 ± 0.012	0.000292 ± 0.021	0.000137 ± 0.018	< 0.0001
UCCUGGAUGAGCUAGCAUAGUAUUUACAAA	0.00121 ± 0.0046	0.00125 ± 0.0073	0.00212 ± 0.0034	0.000141 ± 0.051
UCCUGCUACAGCUUGCAUAGAUUUUAGUAA	0.00091 ± 0.0067	0.00158 ± 0.0044	0.0033 ± 0.0022	0.000373 ± 0.011
UCCUGGAACAGCUUGCAUAGAAUUUACAAA	0.000554 ± 0.0099	0.00186 ± 0.0054	0.00102 ± 0.0032	0.000815 ± 0.012
UCCUGGAUGAGCAACCAUAGUAUUUAGAAA	0.000693 ± 0.009	0.000492 ± 0.0061	0.000425 ± 0.012	0.000292 ± 0.035

As entered above.
Entry of UCCUCCUACAGCUUGCAUUGUAUUUUCAAA under pre-steady-state target cleavage rate [2]: 0.00112 ± 0.0048
Entry of UCCUGCUACAGCUUCGUUAGUAUUUAGUAA under pre-steady-state target cleavage rate [1]: 0.00158 ± 0.0029

(further entries)

Sequence	pre-steady-state target cleavage rate [1]	pre-steady-state target cleavage rate [2]	pre-steady-state target cleavage rate [3, 4]	pre-steady-state target cleavage rate [3, 5]
UCCUGCUUCAGCUUGCAUAGUAUUUUCAAA	0.00131 ± 0.005	0.00224 ± 0.0043	0.00362 ± 0.0023	0.000311 ± 0.015
UCCUGGAUGUCGAAGACAUAGUAUUUAGUUA	0.000548 ± 0.0065	0.000613 ± 0.012	0.00104 ± 0.0054	0.000274 ± 0.026
UCCUGGUACAGCUUGCUAAGUAUUUUCAAA	0.0011 ± 0.0059	0.000877 ± 0.008	0.000463 ± 0.011	0.000821 ± 0.014
UCCUGCUACAGCUUGCUAAGUAUUUACAAA	0.000872 ± 0.006	0.000231 ± 0.019	0.000869 ± 0.0071	0.000566 ± 0.0095
UCCUGGAUGUCCAUGCAUAGUAUUUAGUAA	0.0023 ± 0.0037	0.0012 ± 0.0069	0.00068 ± 0.0045	0.000231 ± 0.03
UCCUGCUACAGCUUGCAUAGUAUAAAGAAA	0.000948 ± 0.0082	0.00119 ± 0.0064	0.00337 ± 0.0023	0.000226 ± 0.026
UCCUCCUACAGCUUGCAAUCUAUUUAGAAA	0.000626 ± 0.0075	0.000821 ± 0.0063	0.00122 ± 0.0065	0.000217 ± 0.015
UCCUGGAACAGCUUGCAUUCUAUUUAGAAA	0.000493 ± 0.013	0.000319 ± 0.01	0.000646 ± 0.0064	0.000376 ± 0.02
UCCUCCUACAGCUUCGUUAGUAUUUACAAA	0.000175 ± 0.012	0.000361 ± 0.01	0.000318 ± 0.0087	0.000204 ± 0.022
UCCUGGAUGUGCUUGCAUAGUAUAUUGUUA	0.000861 ± 0.0088	0.003 ± 0.0031	0.00234 ± 0.003	0.000742 ± 0.012
UCCUCCUACAGCUUGCAUUCAAUUUAGUAA	0.000693 ± 0.0078	0.000743 ± 0.0091	0.000845 ± 0.0054	0.000382 ± 0.011
UCCUGGUACUCCUUGCAUAGUAUUUUCAAA	0.00151 ± 0.0044	0.00149 ± 0.0047	0.000594 ± 0.0044	0.000119 ± 0.043
UCCUGCUACACGUUGCAUAGUAUUUAGAAA	0.000793 ± 0.011	0.00136 ± 0.0035	0.00142 ± 0.003	0.000277 ± 0.023
UCCUGGUACAGCUUGCUAUGUAUUUAGAAA	0.000771 ± 0.0071	0.00104 ± 0.006	0.000197 ± 0.018	0.000457 ± 0.011
UCCUGGUACAGCUUGCAUAGUAUAAUGAAA	0.0015 ± 0.005	0.00235 ± 0.0038	0.00267 ± 0.0036	0.000114 ± 0.033
UCCUGCUACAGCUUGCAUAGUUAUUACAAA	0.00155 ± 0.0047	0.00134 ± 0.0076	0.000949 ± 0.0052	0.000178 ± 0.046
UCCUGGAAGAGCUUGCAUAGUAUUUUCAAA	0.000145 ± 0.02	0.00136 ± 0.0046	0.00137 ± 0.0022	0.000527 ± 0.015
UCCUCCUACAGCUUGCAAAGUAUUUUCAAA	0.0014 ± 0.0036	0.00213 ± 0.004	0.00286 ± 0.0028	0.00046 ± 0.014
UCCUGGAUGUCCUUGCAUAGAUAUUAGUAA	0.000288 ± 0.018	0.000641 ± 0.009	0.00116 ± 0.0064	0.000207 ± 0.022
UCCUGGAACAGCUUGCAUAGUAAAAAGUAA	0.00104 ± 0.0056	0.000864 ± 0.0051	0.00258 ± 0.0039	0.000353 ± 0.024
UCCUGGAUGUCGAUGCAUAGCUAUUUAGUUA	0.000341 ± 0.018	0.000857 ± 0.0087	0.000238 ± 0.014	0.000228 ± 0.026
UCCUGGAACAGCUUGCAUACAUUUUAGAAA	0.000666 ± 0.009	0.000916 ± 0.008	0.000405 ± 0.0075	0.00052 ± 0.014
